Laboratory results published in USRE48335E1, “Polymyxin derivatives as antimicrobial compounds” (priority 2014, dated 2020).
For part of these data: Not every detail of the peptide structures is certain; ends, links or a residue may be inferred. Some results were stated once for a whole list of compounds, not compound by compound. Positions of bridges follow the written chain, without caps; N, C: chain ends. Non-standard residues stand in square brackets, D forms with d. Residues, ends and D or L forms follow the SMILES beside them. *: point of attachment. Octanoyl = CCCCCCCC(=O)*; Dab = NCC[C@H](N)C(=O)O

Experiments:
[1] = colistin as its inactive prodrug colistin methanesulphonate; cited from earlier work
A. baumannii ATCC 19606 = test: In vivo efficacy in mouse blood infection model (neutropenic Swiss mice); details: compound, free base 4 mg/kg intravenously 2 h after inoculation, blood at 4 h
Method: (§1) P. aeruginosa ATCC 27853, A. baumannii ATCC 19606 and K. pneumoniae FADDI-KP032 were subcultured on nutrient agar plates. One colony of each bacterial strain was dispersed in 10-mL CAMHB and incubated overnight. On day 2, an aliquot (0.2 mL) of each overnight culture suspension was dispersed in 20-mL CAMHB and incubated for 1.5-2.5 h for production of early log-phase growth bacterial culture. The bacteria in the early log-phase growth suspension were concentrated by centrifugation (3,220 g for 10 min) and re-suspended in sterile 0.9% saline for inoculation into mice. The bacterial cell concentration (colony forming unit [CFU]/mL) in saline was estimated by determining the optical density (OD) of the suspension at 600 nm, and confirmed by plating the suspension on nutrient agar plates. Swiss mice (22 to 28 g) were rendered neutropenic by injecting two doses of cyclophosphamide intraperitoneally, −4 day (150 mg/kg) and −1 day (100 mg/kg) prior to inoculation. Bloodstream infection was established by injecting intravenously 50 μL of early log-phase bacterial suspension (10^8-10^9 CFU/mL). The exact injection volume for each bacterial suspension was calculated based upon the OD value of the bacterial suspension and the desired inoculum for each isolate.
(§2) Solutions for administration of colistin, polymyxin B or the compounds were prepared at a concentration of 1 mg (free base) per mL in sterile 0.9% saline. At 2 h after inoculation, a mouse in the treatment groups was injected intravenously with one of the above solutions at 4 μL/g body weight (BW) (i.e. free base 4 mg/kg BW), while the same volume of saline was injected into the control mice. At 0 h or at 4 h after the administration of antibacterial drug or saline (control), animals were euthanised by inhalation of overdose isoflurane. The skin on the chest and fore-paws of each animal was thoroughly cleansed with 70% ethanol and Betadine®. The blood was collected via cardiac puncture using a 1-mL syringe rinsed with heparin (5,000 IU/mL), diluted serially in sterile 0.9% saline and plated on nutrient agar plates using a spiral plater.
(§3) The agar plates were incubated at 37° C. overnight. The bacterial colonies on the plate were counted and CFU/mL of the blood was calculated. The log10 CFU/mL of blood in each mouse was calculated. The in vivo activity of the compounds against the bacteria was calculated as the difference of the log10 CFU/mL values between the treated mice and the control mice at 4 h (Δ log=log10 (treated)CFU/mL−log10 (control)CFU/mL).
(§4) Any compound showing a decrease in bacterial loading (Δ log) of ≥2 at 4 h is considered to have good in vivo efficacy in this initial screening model.

[2] = test system: K. pneumoniae FADDI-KP032; test: as above; details: compound, free base 4 mg/kg intravenously 2 h after inoculation, blood at 4 h
Method: as §1, §2, §3, §4

P. aeruginosa ATCC 27853 = test: as above; details: compound, free base 4 mg/kg intravenously 2 h after inoculation, blood at 4 h
Method: as §1, §2, §3, §4

Molecule	patients in whom parenteral administration can be potentially nephrotoxic [1]	Δ log (Treated-Control at 4 h) (A. baumannii ATCC 19606) [log10 CFU/mL]	Δ log (Treated-Control at 4 h) [2] [log10 CFU/mL]	Δ log (Treated-Control at 4 h) (P. aeruginosa ATCC 27853) [log10 CFU/mL]
polymyxin B [reference compound]	up to 60%	–	–	–
CCCCCCCC(=O)N[C@@H](CCN)C(=O)N[C@H](C(=O)N[C@H](CO)C(=O)N[C@H]1CCNC(=O)[C@H]([C@@H](C)O)NC(=O)[C@H](CCN)NC(=O)[C@H](CCN)NC(=O)[C@H](C(C)C)NC(=O)[C@@H](CC(C)C)NC(=O)[C@H](CCN)NC1=O)[C@@H](C)O [Compound 5] (Octanoyl-[Dab]T[dS][Dab][Dab][dL]V[Dab][Dab]T; lactam 4-C)	–	−2.60	−3.74	−0.54
CCCCCCCC(=O)N[C@@H](CCN)C(=O)N[C@H](C(=O)N[C@H](CO)C(=O)N[C@H]1CCNC(=O)[C@H]([C@@H](C)O)NC(=O)[C@H](CCN)NC(=O)[C@H](CCN)NC(=O)[C@H](C)NC(=O)[C@@H](CC(C)C)NC(=O)[C@H](CCN)NC1=O)[C@@H](C)O [Compound 2] (Octanoyl-[Dab]T[dS][Dab][Dab][dL]A[Dab][Dab]T; lactam 4-C)	–	−2.70	−3.44	–
CCCCCCCC(=O)N[C@@H](CCN)C(=O)N[C@H](C(=O)N[C@H](CO)C(=O)N[C@H]1CCNC(=O)[C@H]([C@@H](C)O)NC(=O)[C@H](CCN)NC(=O)[C@H](CCN)NC(=O)[C@H]([C@@H](C)O)NC(=O)[C@@H](Cc2ccccc2)NC(=O)[C@H](CCN)NC1=O)[C@@H](C)O [Compound 3] (Octanoyl-[Dab]T[dS][Dab][Dab][dF]T[Dab][Dab]T; lactam 4-C)	–	−2.02	−3.45	–
CCCCCCCC(=O)N[C@@H](CCN)C(=O)N[C@H](C(=O)N[C@H](CO)C(=O)N[C@H]1CCNC(=O)[C@H]([C@@H](C)O)NC(=O)[C@H](CCN)NC(=O)[C@H](CCN)NC(=O)[C@H](CO)NC(=O)[C@@H](CC(C)C)NC(=O)[C@H](CCN)NC1=O)[C@@H](C)O [Compound 6] (Octanoyl-[Dab]T[dS][Dab][Dab][dL]S[Dab][Dab]T; lactam 4-C)	–	−2.35	–	–
